Source: US6677433B2 (The Regents of the University of California, priority 2001, dated 2004)

Experiments:
[1] = Bread baking test, loaf volume; conditions: cv. Thesee flour 200 g
[2] = test system: wheat protease preparation; test: Proteolysis by a plant protease preparation (SDS-PAGE, laser densitometer); format: biochemical
Description: The endosperm (10-15 g fresh weight) isolated from 5-day germinated wheat seeds by excising the roots and shoots was extracted for 30 minutes at 4° C. with 5 volumes of 200 mM sodium acetate, pH 4.6, containing 10 mM β-mercaptoenthanol. The homogenate was centrifuged for 20 minutes at 48,000 g, 4° C. The pellet was discarded and the supernatant fluid was fractionated with 30-70% ammonium sulfate. This fraction, which represented the protease preparation, was resuspended in a minimum volume of 20 mM sodium acetate, pH 4.6, containing 10 mM β-mercaptoenthanol, and dialyzed against this buffer overnight at 4° C.
Unless indicated, the reduction of the trypsin inhibitors (0.4 mg/ml) was carried out in 0.1 ml of 20 mM sodium phosphate buffer, pH 7.9 containing 10 mM EDTA at 30° C. for 2 hours. The concentrations of thioredoxin, NTR, and NADPH were 0.024 mg/ml, 0.02 mg/ml, and 0.25 mM, respectively. […] Following reduction, aliquots of the inhibitor mixture were withdrawn either for determination of trypsin inhibitory activity or proteolytic susceptibility. In the subtilisin tests, the inhibitor mixture (50 μl) was directly mixed with subtilisin and incubated at room temperature for 1 hour. With the wheat protease preparation, the pH of the inhibitor mixture (50 μL) was first adjusted to 4.7 by mixing with 35 μl of 200 mM sodium acetate, pH 4.6; 10 μl of the wheat protease preparation was then added and incubation was continued for 2 hours at 37° C. To stop digestion with subtilisin, 2 μl of 100 mM phenylmethylsulfonyl fluoride (PMSF) and 10 μl of 10% SDS were added to the digestion mixture. With the plant protease preparation, digestion was stopped by adding an equal volume of SDS sample buffer [0.125 M Tris-HCl, pH 6.8, 4% (w/v) SDS, 20% (v/v) glycerol, 10% (v/v) β-mercaptoethanol, and 0.02% (w/v) bromophenol blue]. Proteolytic products were analyzed by electrophoresis with 12% or 16% SDS polyacrylamide slab gels (Laemmli, 1970). The dried slab gels were scanned with a laser densitometer (Pharmacia-LKB UltraScan XL) and the peak area of the KTI or BBTI protein band was obtained by integration with a Pharmacia GelScan XL software program.
To test whether the reduced forms of KTI and BBTI show decreased stability to proteases other than trypsin, both the reduced and oxidized forms of KTI and BBTI were incubated with a wheat protease preparation or with subtilisin and the proteolytic products were analyzed by SDS-PAGE. The extent of proteolysis was determined by measuring the abundance of intact protein on SDS gels by laser densitometer. When tested with a protease preparation from 5-day germinated wheat seeds, the oxidized form of the Kunitz inhibitor was almost completely resistant to digestion whereas the thioredoxin-reduced form was susceptible to protease. […] The nature of the proteolytic reaction was not investigated, but it is noted that peptide products were not detected on SDS gels.

Molecule: NC(=O)C1=CN([C@@H]2O[C@H](COP(=O)(O)OP(=O)(O)OC[C@H]3O[C@@H](n4cnc5c(N)ncnc54)[C@H](OP(=O)(O)O)[C@@H]3O)[C@@H](O)[C@H]2O)C=CC1 [NADPH]
- Loaf Volume, Relative Units ([1]; control = 100): 92
- Loaf Volume ([1]; where added NADPH 6.0, NTR 30 μg, Th 60 μg (yeast: NTR 9.4, Th 20), control 1690): 1550 cm3

B1: Soybean Kunitz: Kunitz soybean trypsin inhibitor (protein, UniProt P01070 25-205, looked up)
Trypsin inhibitor A: DFVLDNEGNPLENGGTYYILSDITAFGGIRAAPTGNERCPLTVVQSRNELDKGIGTIISSPYRIRFIAEGHPLSLKFDSFAVIMLCVGIPTEWSVVEDLPEGPAVKIGENKDAMDGWFRLERVSDDEFNNYKLVFCPQQAEDDKCGDIGISIDHDDGTRRLVVSKNKPLVVQFQKLDKESL
- Relative Abundance, Protease, NTS minus NADPH [2]: 97.7
- Relative Abundance, Protease, NTS minus NTR [2]: 97.9
- Relative Abundance, Protease, NTS minus thioredoxin [2]: 90.2
- Relative Abundance, Protease, No reduction system ([2]; no protease = 100, 37° C., 2 hours, pH 4.7): 97.9
- Relative Abundance, Protease, E. coli NTS ([2]; reduction 30° C., 2 hours): 22.1
